PubChem BioAssay AID1224826, NIAID, 2016

Aim: 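Knock-downs that raise or lower Tnf reporter signal after endotoxin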 (primary screen)
Cell system: RAW264.7 G9 macrophages from mouse bearing reporters for p65 (GFP) and the Tnf promoter (mCherry)
Reagent: siRNA pool against mouse genes, 100 nM
Duration: 16 h of LPS stimulation, after 2 days of siRNA transfection
Conditions: bacterial lipopolysaccharide (Salmonella minnesota R595), 10 ng/ml
Read-out: 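Nuclear mCherry signal of the Tnf promoter reporter measured by imaging after background removal, scaled to each plate median and turned into robust z-scores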
Scale: Tnf reporter robust z-score: higher = stronger Tnf promoter reporter signal after LPS
Call rule: 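Called active when robust z-score is at most -1.3, matching the median of the Tlr4 knock-down control, or over 3; control wells and wells with under 50 cells never active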
Calls: active = Tnf reporter clearly lowered or raised; inactive = no clear change in Tnf reporter
Shown is one part, drawn at random, of about 17,000 reagents tested. Over the whole deposit, about 1,110 (6.6%) got an active call. 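Active means lowered or raised reporter signal; replicate intensities are raw and not normalised per plate.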 Unmarked entries are inactive. Further read-outs or replicates are left out here. Reagent sequences are not shown.

Slamf7 [SID315475107] | Tnf reporter robust z-score: 1.45; fewer than 50 cells in well: enough cells in well
Bckdk [SID315465608] | Tnf reporter robust z-score: -0.83; fewer than 50 cells in well: enough cells in well
Gjd3 [SID315481697] | Tnf reporter robust z-score: -0.02; fewer than 50 cells in well: enough cells in well
Qrich1 [SID315473760] | Tnf reporter robust z-score: 0.21; fewer than 50 cells in well: enough cells in well
Rom1 [SID315468996] | Tnf reporter robust z-score: -1.41 (active); fewer than 50 cells in well: enough cells in well
Zfp13 [SID315470094] | Tnf reporter robust z-score: 0.88; fewer than 50 cells in well: enough cells in well
Dele1 [SID315472665] | fewer than 50 cells in well: fewer than 50 cells per well; well left out of calls
Bnipl [SID315477360] | Tnf reporter robust z-score: 0.56; fewer than 50 cells in well: enough cells in well
Uqcrfs1 [SID315472589] | Tnf reporter robust z-score: -0.53; fewer than 50 cells in well: enough cells in well

2 entries from above, arranged by “Tnf reporter robust z-score”, lowest first.
Gjd3 [SID315481697] | Tnf reporter robust z-score: -0.02; fewer than 50 cells in well: enough cells in well
Qrich1 [SID315473760] | Tnf reporter robust z-score: 0.21; fewer than 50 cells in well: enough cells in well

Next reagents:
Fam24a [SID315473462] | Tnf reporter robust z-score: 1.65; fewer than 50 cells in well: enough cells in well
Or6n2 [SID315480364] | Tnf reporter robust z-score: 1.46; fewer than 50 cells in well: enough cells in well
Or8c9 [SID315468306] | Tnf reporter robust z-score: -0.57; fewer than 50 cells in well: enough cells in well
Scgn [SID315477848] | Tnf reporter robust z-score: -0.26; fewer than 50 cells in well: enough cells in well
F2 [SID315466600] | Tnf reporter robust z-score: 0.9; fewer than 50 cells in well: enough cells in well
Olfr197 [SID315480154] | Tnf reporter robust z-score: -0.54; fewer than 50 cells in well: enough cells in well
Acbd5 [SID315474880] | Tnf reporter robust z-score: -0.18; fewer than 50 cells in well: enough cells in well
Krtap3-2 [SID315472597] | Tnf reporter robust z-score: 1.51; fewer than 50 cells in well: enough cells in well
Krt79 [SID315478303] | Tnf reporter robust z-score: -0.81; fewer than 50 cells in well: enough cells in well
Dtx4 [SID315477485] | Tnf reporter robust z-score: 0.89; fewer than 50 cells in well: enough cells in well
Rmnd5b [SID315472206] | Tnf reporter robust z-score: -0.29; fewer than 50 cells in well: enough cells in well
Cox19 [SID315473375] | fewer than 50 cells in well: fewer than 50 cells per well; well left out of calls
